The supplement of paper PMC3334620
In all, about 33,000 sequences were measured (“E-score (-0.5 to 0.5)”: median about -0.0059, highest 2% from about 0.26 on). The list shows a part of the results.

Each sequence was assayed against T1, Cin5 (UniProt P40917) (assay: PBM E-score (8-mer binding enrichment) (E-score (-0.5 to 0.5)); higher = stronger / more preferred TF binding). Details: protein concentration: 100 nM; construct: GST-full length.
T1 sequence: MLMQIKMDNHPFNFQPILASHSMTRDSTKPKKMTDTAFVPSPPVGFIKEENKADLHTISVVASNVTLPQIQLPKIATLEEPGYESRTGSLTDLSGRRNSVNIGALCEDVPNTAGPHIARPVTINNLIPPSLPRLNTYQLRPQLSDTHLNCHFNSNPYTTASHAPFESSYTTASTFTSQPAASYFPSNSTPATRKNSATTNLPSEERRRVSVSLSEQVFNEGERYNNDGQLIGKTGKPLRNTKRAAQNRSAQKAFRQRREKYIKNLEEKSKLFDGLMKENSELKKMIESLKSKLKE
In short: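 For each ungapped eight-base word taken together with its reverse complement, the Universal PBM Analysis Suite assigned an E-score. Binding data came from GST-tagged yeast transcription factors, applied at about 100-200 nM, on universal all-10-mer Agilent arrays made double-stranded by primer extension. Fluorescent anti-GST marked bound protein, and scans were normalised with masliner.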

| Sequence | PBM E-score |
| --- | --- |
| GCTCCACA | -0.305 |
| AACACGTT | -0.0784 |
| GCAATAGA | -0.0214 |
| CTCCTTTA | -0.234 |
| AAGAAATA | 0.104 |
| ATGCTATA | -0.0146 |
| ATCACAAC | 0.0894 |
| TCTGCAAA | -0.0611 |
| AGAGCCTA | -0.133 |
| AGCGCCGA | -0.215 |
| GTACATAC | -0.00133 |
| AGAAAGTG | 0.0801 |
| ATGAGTAA | 0.137 |
| ATTGCATC | 0.12 |
| CTTTTCCC | -0.028 |
| AAAGTAAA | 0.171 |
| CGGTGAAA | 0.0241 |
| AAGAAGAT | 0.075 |
| GGGGCACC | -0.367 |
| ATACAATG | 0.123 |
| AATGGGAA | -0.0778 |
| AACATGGC | -0.04 |
| AATTTAGC | 0.091 |
| CACTACAA | 0.19 |
| ACGCGACG | -0.00148 |

| Sequence | PBM E-score |
| --- | --- |
| ACGGCGAT | 0.126 |
| AAAGTTCT | -0.0295 |
| ACATAAGT | 0.195 |
| GATTAAGC | 0.244 |
| AAACTTCA | 0.0632 |
| CTCCCCGA | -0.141 |
| CAAATCTG | -0.0445 |
| ATCGAGAT | 0.223 |
| GCACTCCC | -0.146 |
| CGCCTTGA | -0.133 |
| TCGGTCAA | 0.00289 |
| CGTCGCTA | 0.0608 |
| AAAGACCG | -0.181 |
| GAAACTGA | -0.17 |
| CCGACCTA | 0.0421 |
| GAGCCTAA | -0.052 |
| GAAGGCGC | -0.206 |
| ATAATTCA | 0.163 |
| CAAGAACC | 0.0689 |
| TGCCGTAA | 0.152 |
| CGTTAACG | 0.0398 |
| CGCAACTA | 0.267 |
| TCTGACAA | -0.0063 |
| CCGTTCCA | 0.017 |
| AGCTATTA | 0.0945 |

6 entries from above, as tab-separated lines:
Sequence	PBM E-score
AGAGCCTA	-0.133
AGCGCCGA	-0.215
GTACATAC	-0.00133
AGAAAGTG	0.0801
ATGAGTAA	0.137
ATTGCATC	0.12

(cont.)

| Sequence | PBM E-score |
| --- | --- |
| CTTTACGC | 0.0738 |
| CAATCCAG | 0.137 |
| CACTATGG | -0.15 |
| AGCGTCAT | 0.0262 |
| CAAAGCGG | -0.0272 |
| ACAGTTAG | 0.0386 |
| AGAGTGTG | -0.0181 |
| ACACATAG | -0.0306 |
| GACTCGTA | -0.2 |
| GCTACGTA | 0.0228 |
| ACTTGCAT | 0.206 |
| ACAGCGGG | -0.0265 |
| ATTGCAGC | 0.0151 |
| CCCATACA | 0.00179 |
| ACCTAAAC | 0.0646 |
| ATGCCTGG | -0.226 |
| ATCCTAGC | 0.0411 |
| AGAAACCA | 0.123 |
| GGGGAAAA | 0.0564 |
| GTTCTACA | -0.127 |
| CGGCTGCA | -0.224 |
| CAGAACGA | 0.0474 |
| CATAGGAC | -0.216 |
| AGATCGCC | -0.0294 |
| CTTTATTC | 0.0217 |

| Sequence | PBM E-score |
| --- | --- |
| CCCTGGCC | -0.348 |
| ATCGGTTA | 0.151 |
| GCCACCGC | -0.118 |
| GAAGAAAA | 0.014 |
| CCTGCAGG | -0.134 |
| CAAGATTG | 0.00182 |
| CATAGTCA | 0.102 |
| ACCCGTGC | -0.257 |
| ATAACTAC | 0.231 |
| AGAAGAGG | -0.232 |
| CACCCCTC | -0.0486 |
| CGAGTCTC | -0.29 |
| CGACCTAA | 0.0622 |
| GTTTATAA | 0.136 |
| CATGGTAC | 0.0904 |
| GGATGGGA | 0.0309 |
| AGGTCCTA | -0.205 |
| GCTTGGTA | 0.0775 |
| CACTTCTA | -0.0259 |
| CTGATCAC | -0.0393 |
| AAGAACGA | 0.105 |
| AAAGGCTG | -0.175 |
| CATCGGGG | -0.142 |
| ACGTCAGG | -0.0212 |
| CGCACTTA | -0.0374 |

| Sequence | PBM E-score |
| --- | --- |
| TCGGTACA | -0.0943 |
| AAAAGCCA | 0.112 |
| TAGTACAA | 0.161 |
| CCCGCAGG | -0.135 |
| CCCGTGAG | -0.0808 |
| TGATCCCA | 0.066 |
| GCTTTGAA | -0.102 |
| ATGTAGTC | 0.0648 |
| GGTAACCA | -0.151 |
| CGGAGTAC | -0.0636 |
| CACTACAG | -0.0413 |
| CAGATGCC | -0.193 |
| CCATTCAG | 0.103 |
| CGCGGGCC | 0.0512 |
| GACGGGGA | -0.131 |
| CGTGGAAC | -0.0687 |
| ATTGTGGA | -0.0238 |
| ACGTGAAC | -0.16 |
| GATGTTAA | 0.209 |
| CTCCGTTA | -0.0665 |
| AATCAATC | 0.245 |
| ACAGATAA | 0.139 |
| AGCGTACC | -0.18 |
| TCGCCTCA | -0.0845 |
| GTATGCGA | 0.113 |

| Sequence | PBM E-score |
| --- | --- |
| CCCGAATC | -0.0402 |
| TCTCTCCA | -0.0841 |
| TCCCAGAA | -0.129 |
| ACACTGTA | -0.0445 |
| CCTTACTA | 0.0454 |
| ATATTCGA | 0.026 |
| ATTATTTA | 0.319 |
| AAGCGCAG | 0.14 |
| ACGTGTAA | 0.104 |
| CAAGGACC | -0.071 |
| AGGCGGGG | -0.0324 |
| CATTACCA | 0.109 |
| ATCCTCCC | -0.103 |
| AAATGCCA | -0.0407 |
| CCGTGCAC | -0.197 |
| GGCGCGAC | 0.00209 |
| AGAAAGTA | -0.0086 |
| CCTCCCCC | -0.461 |
| CATCGAGG | -0.0889 |
| AGTGCCCC | -0.263 |
| GTGCTCAA | 0.0685 |
| ACCCACTA | 0.132 |
| ACGTGAAA | 0.134 |
| CGCCATTC | 0.0442 |
| ATCATGAT | 0.098 |

| Sequence | PBM E-score |
| --- | --- |
| TAGGGTAA | 0.126 |
| AAGGCACA | -0.0687 |
| ACGTCAAG | -0.174 |
| GGTCATAA | 0.0378 |
| AAACGACC | 0.106 |
| AAACCTCA | 0.178 |
| ATTGTGGC | 0.105 |
| CGTCCAGC | -0.219 |
| GCATGAGC | -0.0691 |
| ACACAGGA | -0.063 |
| CCGTAGTC | -0.167 |
| GAGCTGGC | -0.0869 |
| GAATGAGC | 0.0388 |
| GAGGACGC | -0.163 |
| AACCCTAG | 0.0154 |
| TGTCGCAA | -0.122 |
| GTCCGATA | -0.112 |
| CACGGACC | -0.0808 |
| AAAACAGC | 0.0951 |
| CACCCCCC | -0.498 |
| CCCCGGTA | -0.253 |
| ACGGAGTC | -0.026 |

Two entries drawn at random from those above:

| Sequence | PBM E-score |
| --- | --- |
| GAGCTGGC | -0.0869 |
| ACACAGGA | -0.063 |
